Measured values from patent US20100204091A1.
Positions count from the first letter of the chain named. Names and notes keep the numbering of the source. These are yes or no findings as the source states them, for the method shown. For part of these data: In cells and extracts the contact can be indirect. Some results given as binding are weak or reduced against the parent protein; the word gives no strength. For part of these data: Tags and fused reporters may be left off the sequences shown.

Amino acid sequences for entries named in this document (tags omitted). Residues count along the entry.
UniProt P26842, residues 20-260: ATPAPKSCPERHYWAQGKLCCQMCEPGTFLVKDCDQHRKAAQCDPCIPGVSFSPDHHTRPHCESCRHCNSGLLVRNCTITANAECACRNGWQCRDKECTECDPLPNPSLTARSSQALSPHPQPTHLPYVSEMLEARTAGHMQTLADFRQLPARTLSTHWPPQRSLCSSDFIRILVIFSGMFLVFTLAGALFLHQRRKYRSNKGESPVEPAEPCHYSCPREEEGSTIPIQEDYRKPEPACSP

Experiments:
[1] = biological target: NF-κB-inducing kinase, NIK, (MAP3K14) (human) (UniProt Q99558); assay: co-immunoprecipitation from Ramos cells after CD70; also BJAB cells (NIK stable, SIVA2 transduced) after long term CD40 ligand, but not TRAIL
[2] = biological target: NF-κB-inducing kinase, NIK, (MAP3K14) (human) (UniProt Q99558); assay: co-immunoprecipitation with NIK from Ramos cells expressing myc-tagged NIK after CD70; also from BJAB cells after CD40L
FLAG tagged TRAF2 = biological target: T1, FLAG tagged TRAF2 (UniProt Q12933); assay: co-immunoprecipitation with anti FLAG-M2 beads from HEK 293T cells, anti HIS blot
T1 sequence (looked up): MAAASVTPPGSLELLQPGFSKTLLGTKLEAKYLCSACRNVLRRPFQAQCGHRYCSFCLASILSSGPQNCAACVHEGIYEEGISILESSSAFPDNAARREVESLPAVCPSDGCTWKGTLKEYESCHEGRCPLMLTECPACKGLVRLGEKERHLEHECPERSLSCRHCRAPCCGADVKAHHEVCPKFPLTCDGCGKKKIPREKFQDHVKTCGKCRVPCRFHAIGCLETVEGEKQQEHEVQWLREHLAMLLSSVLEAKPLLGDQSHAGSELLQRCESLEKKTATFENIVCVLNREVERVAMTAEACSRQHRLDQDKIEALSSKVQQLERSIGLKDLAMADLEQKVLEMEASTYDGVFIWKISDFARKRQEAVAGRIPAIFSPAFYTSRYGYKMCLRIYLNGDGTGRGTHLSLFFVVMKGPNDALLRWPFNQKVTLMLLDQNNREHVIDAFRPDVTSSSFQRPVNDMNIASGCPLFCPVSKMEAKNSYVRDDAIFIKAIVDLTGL

SIVA1 (human) = biological target: T2, SIVA1 (human) (UniProt O15304); assay: co-immunoprecipitation from transiently transfected HEK 293T cells
T2 sequence: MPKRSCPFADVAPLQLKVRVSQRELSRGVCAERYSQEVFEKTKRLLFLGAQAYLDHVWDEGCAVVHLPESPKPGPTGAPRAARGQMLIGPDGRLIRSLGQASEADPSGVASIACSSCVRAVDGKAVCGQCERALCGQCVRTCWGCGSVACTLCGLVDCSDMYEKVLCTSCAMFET

SIVA2 (human) [3] = biological target: T3, SIVA2 (human) (UniProt O15304); assay: co-immunoprecipitation with anti-NIK from HeLa cells, SIVA2 blot
T3 sequence: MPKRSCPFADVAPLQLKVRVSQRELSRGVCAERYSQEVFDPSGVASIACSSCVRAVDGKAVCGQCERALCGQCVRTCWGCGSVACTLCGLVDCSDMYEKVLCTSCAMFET

[4] = biological target: NF-κB-inducing kinase, NIK, (MAP3K14) (human) (UniProt Q99558); assay: co-immunoprecipitation with anti-NIK from transfected HeLa cells
SIVA2 (human) [5] = biological target: T3, SIVA2 (human); assay: co-precipitation of NIK, SIVA2 and TRAF3 from transiently transfected HEK 293T cells (anti FLAG IP of SIVA2, anti-TRAF3 blot)
CD27 receptor [6] = biological target: CD27 receptor (UniProt P26842); assay: receptor complex IP through FLAG-CD70 from Ramos cells
CD27 receptor [7] = biological target: CD27 receptor (UniProt P26842); assay: receptor complex IP through FLAG-CD70 from Ramos cells, anti-TRAF2 blot
CD27 receptor [8] = biological target: CD27 receptor (UniProt P26842); assay: anti-FLAG IP of the CD27 receptor complex from 293-CD27 cells treated with FLAG-CD70

B1: SIVA2 (protein)
chain: T3 sequence
In the case of B1, the binding [1] is reported as “binds”, the binding [2] is reported as “binds” and the binding (FLAG tagged TRAF2) is reported as “binds”.

B2: aly NIK (human NIK with a mutation (G860R) corresponding to the mouse aly mutation) (enzyme, UniProt Q99558 1-947, looked up)
chain: MAVMEMACPGAPGSAVGQQKELPKAKEKTPPLGKKQSSVYKLEAVEKSPVFCGKWEILNDVITKGTAKEGSEAGPAAISIIAQAECENSQEFSPTFSERIFIAGSKQYSQSESLDQIPNNVAHATEGKMARVCWKGKRRSKARKKRKKKSSKSLAHAGVALAKPLPRTPEQESCTIPVQEDESPLGAPYVRNTPQFTKPLKEPGLGQLCFKQLGEGLRPALPRSELHKLISPLQCLNHVWKLHHPQDGGPLPLPTHPFPYSRLPHPFPFHPLQPWKPHPLESFLGKLACVDSQKPLPDPHLSKLACVDSPKPLPGPHLEPSCLSRGAHEKFSVEEYLVHALQGSVSSGQAHSLTSLAKTWAARGSRSREPSPKTEDNEGVLLTEKLKPVDYEYREEVHWATHQLRLGRGSFGEVHRMEDKQTGFQCAVKKVRLEVFRAEELMACAGLTSPRIVPLYGAVREGPWVNIFMELLEGGSLGQLVKEQGCLPEDRALYYLGQALEGLEYLHSRRILHGDVKADNVLLSSDGSHAALCDFGHAVCLQPDGLGKSLLTGDYIPGTETHMAPEVVLGRSCDAKVDVWSSCCMMLHMLNGCHPWTQFFRGPLCLKIASEPPPVREIPPSCAPLTAQAIQEGLRKEPIHRVSAAELGGKVNRALQQVGGLKSPWRGEYKEPRHPPPNQANYHQTLHAQPRELSPRAPGPRPAEETTGRAPKLQPPLPPEPPEPNKSPPLTLSKEESGMWEPLPLSSLEPAPARNPSSPERKATVPEQELQQLEIELFLNSLSQPFSLEEQEQILSCLSIDSLSLSDDSEKNPSKASQSSRDTLSSGVHSWSSQAEARSSSWNMVLARGRPTDTPSYFNRVKVQIQSLNGEHLHIREFHRVKVGDIATGISSQIPAAAFSLVTKDGQPVRYDMEVPDSGIDLQCTLAPDGSFAWSWRVKHGQLENRP
In the case of B2, the binding (SIVA1 (human)) is reported as “binds”.

B3: NIK 304* (amino acids 332-335, SVEE mutated to SVAA) (enzyme, human, UniProt Q99558 1-947, looked up)
chain: B2 chain with E334A, E335A, R860G
B3 was tested, and the binding (SIVA2 (human) [3]) was “binds”.

B4: NIK 704* (amino acids 702-705 PAEE mutated to PAAA) (enzyme, human, UniProt Q99558 1-947, looked up)
chain: B2 chain with E704A, E705A, R860G
B4 was tested, and the binding (SIVA2 (human) [3]) was “binds”.

B5: SIVA-C (C-terminal part of SIVA, amino acids 123-175 in SIVA1 or 58-110 in SIVA2) (protein)
chain: KAVCGQCERALCGQCVRTCWGCGSVACTLCGLVDCSDMYEKVLCTSCAMFET
For B5, the binding [4] was “binds”.

B6: kinase-dead NIK (NIK KK429,430AA) (enzyme, human, UniProt Q99558 1-947, looked up)
chain: B2 chain with K429A, K430A, R860G
In the case of B6, the binding (SIVA2 (human) [5]) is reported as “binds”.

B7: SIVA2 1-81 (protein)
chain: MPKRSCPFADVAPLQLKVRVSQRELSRGVCAERYSQEVFDPSGVASIACSSCVRAVDGKAVCGQCERALCGQCVRTCWGCG
For B7, the binding (FLAG tagged TRAF2) was “binds”.

B8: TRAF2 (endogenous, recruited to the CD27 receptor) (protein, UniProt Q12933 2-501, looked up)
chain: AAASVTPPGSLELLQPGFSKTLLGTKLEAKYLCSACRNVLRRPFQAQCGHRYCSFCLASILSSGPQNCAACVHEGIYEEGISILESSSAFPDNAARREVESLPAVCPSDGCTWKGTLKEYESCHEGRCPLMLTECPACKGLVRLGEKERHLEHECPERSLSCRHCRAPCCGADVKAHHEVCPKFPLTCDGCGKKKIPREKFQDHVKTCGKCRVPCRFHAIGCLETVEGEKQQEHEVQWLREHLAMLLSSVLEAKPLLGDQSHAGSELLQRCESLEKKTATFENIVCVLNREVERVAMTAEACSRQHRLDQDKIEALSSKVQQLERSIGLKDLAMADLEQKVLEMEASTYDGVFIWKISDFARKRQEAVAGRIPAIFSPAFYTSRYGYKMCLRIYLNGDGTGRGTHLSLFFVVMKGPNDALLRWPFNQKVTLMLLDQNNREHVIDAFRPDVTSSSFQRPVNDMNIASGCPLFCPVSKMEAKNSYVRDDAIFIKAIVDLTGL
In the case of B8, the binding (CD27 receptor [6]) is reported as “binds”, the binding (CD27 receptor [7]) is reported as “binds” and the binding (CD27 receptor [8]) is reported as “binds”.
